From publication doi:10.1101/209411
Like-named read-outs stand apart in the source and are kept apart here. Results are given in words; binding and its absence hold for the method and conditions named. In cells and extracts the contact can be indirect. Some binding calls cover weakened binding; strength is not graded here.

Protein sequences, listed by entry. Tags and fused reporters are not part of them.
UniProt P45448: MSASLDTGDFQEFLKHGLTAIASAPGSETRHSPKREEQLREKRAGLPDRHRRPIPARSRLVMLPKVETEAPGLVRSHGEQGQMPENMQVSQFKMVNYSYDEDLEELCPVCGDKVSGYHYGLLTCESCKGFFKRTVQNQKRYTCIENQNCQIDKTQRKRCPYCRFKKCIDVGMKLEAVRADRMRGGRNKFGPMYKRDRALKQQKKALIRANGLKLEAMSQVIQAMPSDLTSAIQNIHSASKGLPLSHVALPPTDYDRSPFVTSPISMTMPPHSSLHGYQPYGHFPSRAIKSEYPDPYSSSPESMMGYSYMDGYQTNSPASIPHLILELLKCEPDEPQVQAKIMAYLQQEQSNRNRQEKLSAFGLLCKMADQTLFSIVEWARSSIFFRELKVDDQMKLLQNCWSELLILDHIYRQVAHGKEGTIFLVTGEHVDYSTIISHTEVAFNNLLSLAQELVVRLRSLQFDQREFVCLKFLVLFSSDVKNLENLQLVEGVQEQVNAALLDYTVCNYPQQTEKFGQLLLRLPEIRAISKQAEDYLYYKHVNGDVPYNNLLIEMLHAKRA
UniProt P05627: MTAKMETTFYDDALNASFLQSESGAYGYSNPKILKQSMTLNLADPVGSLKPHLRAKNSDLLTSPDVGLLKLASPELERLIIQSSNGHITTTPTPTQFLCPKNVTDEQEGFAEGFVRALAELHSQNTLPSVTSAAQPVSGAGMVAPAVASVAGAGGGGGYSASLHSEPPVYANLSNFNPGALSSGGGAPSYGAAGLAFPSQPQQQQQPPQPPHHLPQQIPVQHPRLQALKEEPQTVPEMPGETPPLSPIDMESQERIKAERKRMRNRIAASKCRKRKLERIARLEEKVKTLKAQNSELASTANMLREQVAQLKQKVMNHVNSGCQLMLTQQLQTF

B1: Nr0b2/Shp1 (protein, UniProt Q62227 1-260)
chain: MSSGQSGVCPCQGSAGRPTILYALLSPSPRTRPVAPASHSHCLCQQQRPVRLCAPHRTCREALDVLAKTVAFLRNLPSFCHLPHEDQRRLLECCWGPLFLLGLAQDAVTFEVAEAPVPSILKKILLEEASSGTQGAQPSDRPQPSLAAVQWLQRCLESFWSLELGPKEYAYLKGTILFNPDVPGLRASCHIAHLQQEAHWALCEVLEPWYPASQGRLARILLMASTLKNIPGTLLVDLFFRPIMGDVDITELLEDMLLLR

Experiments:
[1] = target: Nr5a2 (orphan nuclear receptor NR5A2) (mouse (endogenous in pancreas)) (UniProt P45448); assay: co-IP
[2] = target: Nr5a2 (orphan nuclear receptor NR5A2) (mouse (endogenous in pancreas)) (UniProt P45448); assay: co-IP; remark: listed apart in the source

Molecule | binding [1] | binding [2]
c-Jun (from UniProt P05627 1-334) | binds | –
B1 | – | binds
